Test results taken from article PMC11130794.
Results are given in words; binding and its absence hold for the method and conditions named. In cells and extracts the contact can be indirect.

Target: T1, TRMT112 (human (endogenous in U2OS)) (UniProt Q9UI30)
T1 sequence: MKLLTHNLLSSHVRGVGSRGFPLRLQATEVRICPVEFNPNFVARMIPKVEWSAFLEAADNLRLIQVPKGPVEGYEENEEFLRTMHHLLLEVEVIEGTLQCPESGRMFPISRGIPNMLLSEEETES
Experiment: co-IP; Protein G beads with anti-TRMT112 (sc-398481) in U2OS lysate (mitotic by the results), IP buffer 10 mM Tris pH 7.5, 100 mM KCl, 2 mM MgCl2, 1 mM DTT, 0.5% NP-40, 4 °C overnight; immunoblot with N6AMT1 antibody I (CQA1550)

binding: no binding
B1: Aurora kinase A (protein, UniProt O14965 1-403)
chain: MDRSKENCISGPVKATAPVGGPKRVLVTQQFPCQNPLPVNSGQAQRVLCPSNSSQRIPLQAQKLVSSHKPVQNQKQKQLQATSVPHPVSRPLNNTQKSKQPLPSAPENNPEEELASKQKNEESKKRQWALEDFEIGRPLGKGKFGNVYLAREKQSKFILALKVLFKAQLEKAGVEHQLRREVEIQSHLRHPNILRLYGYFHDATRVYLILEYAPLGTVYRELQKLSKFDEQRTATYITELANALSYCHSKRVIHRDIKPENLLLGSAGELKIADFGWSVHAPSSRRTTLCGTLDYLPPEMIEGRMHDEKVDLWSLGVLCYEFLVGKPPFEANTYQETYKRISRVEFTFPDFVTEGARDLISRLLKHNPSQRPMLREVLEHPWITANSSKPSNCQNKESASKQS
